Reference: patent US20250270564A1, “EXTRACELLULAR VESICLE SECRETION BOOSTER FOR BOOSTING EXTRACELLULAR VESICLE SECRETION, AND USE THEREOF” (THEORIA SCIENCE INC., priority 2021, published 2025)
For at least one compound, name, drawing or mass did not settle the structure.

Columns and labels:
HCT116 = test: Amount of secreted EVs (ExoScreen / NTA method); assay type: cell-based, human; settings: inhibitor at 10 nmol/L or 100 nmol/L, FIG. 12
Procedure: For preparation of a secreted EV sample for the ExoScreen method, cells were cultured and supernatant was collected as follows. First, cells were seeded in a 96-well plate using a serum-supplemented medium (the medium according to the type of cells) at 5×10^3 cells/medium 0.1 mL/well (Day 0). After incubation for 24 hours (Day 1), […], and the cells were transfected with the miRNA using a transfection agent (product name Dhermafect1, manufactured by Dhermacon, the same shall apply hereinafter) according to the instructions for use. […]
(§1) For preparation of a secreted EV sample for the NTA method, cells were cultured and supernatant was collected and purified as follows. […] After collecting the supernatant, the number of cells in each well was counted. […]
EV detection was performed using an exosome marker CD9 or C63 according to the ExoScreen method. EV detection was performed using an AlphaLISA reagent (Perkin Elmer) composed of AlphaScreen streptavidin-coated donor beads (6760002), AlphaLISA unconjugated acceptor beads (6062011), and an AlphaLISA universal buffer (AL001F), a 96-well half-area white plate (6005560, Perkin Elmer), and a detection device EnSpire Alpha 2300 Mutilabel plate reader (Perkin Elmer). […] Next, luminescence in the wells of the plate was measured using the detection device with the excitation wavelength set to 680 nm and the emission detection wavelength set to 615 nm. […]

A549 = test: Amount of secreted EVs (ExoScreen / NTA method); assay type: cell-based, human; settings: inhibitor at 10 nmol/L or 100 nmol/L, FIG. 11
Procedure: For preparation of a secreted EV sample for the ExoScreen method, cells were cultured and supernatant was collected as follows. First, cells were seeded in a 96-well plate using a serum-supplemented medium (the medium according to the type of cells) at 5×10^3 cells/medium 0.1 mL/well (Day 0). After incubation for 24 hours (Day 1), 10 fmol of the miRNA was added, and the cells were transfected with the miRNA using a transfection agent (product name Dhermafect1, manufactured by Dhermacon, the same shall apply hereinafter) according to the instructions for use. […]
as §1
EV detection was performed using an exosome marker CD9 or C63 according to the ExoScreen method. EV detection was performed using an AlphaLISA reagent (Perkin Elmer) composed of AlphaScreen streptavidin-coated donor beads (6760002), AlphaLISA unconjugated acceptor beads (6062011), and an AlphaLISA universal buffer (AL001F), a 96-well half-area white plate (6005560, Perkin Elmer), and a detection device EnSpire Alpha 2300 Mutilabel plate reader (Perkin Elmer). […]

C/C=C/C[C@@H](C)C(=O)[C@H]1C(=O)N[C@@H](C(C)C)C(=O)N(C)CC(=O)N(C)[C@@H](CC(C)C)C(=O)N[C@@H](C(C)C)C(=O)N(C)[C@@H](CC(C)C)C(=O)N[C@@H](C)C(=O)N[C@H](C)C(=O)N(C)[C@@H](CC(C)C)C(=O)N(C)[C@@H](CC(C)C)C(=O)N(C)[C@@H](C(C)C)C(=O)N1C [valspodar]
EV secretion compared with NC (HCT116): particularly effectively boosted EV secretion
EV secretion compared with NC (A549): particularly effectively boosted EV secretion
